Further values from the same series stand in other lists.
Tested on: cancer cell lines from the cancer cell line encyclopedia (CCLE)
Assay: Cell line profiling (CLiP) proliferation experiment
Format: cell-based
Design: ACTIVITY_AREA: scale not given here; AMAX: unit not given here
Procedure: Compound profiling experiment and data analysis was performed as previously described. Data was imported and plotted using the Tibco Spotfire DXP application. Lines were categorized as sensitive, intermediate and refractory as follows: Amax<-40 & Inflection Point <2 ~ Sensitive, Amax>-20 & Inflection Point >10 ~ Refractory, all else were called Intermediate. Cancer Cell line HG-U133 Plus 2 data was processed and normalized as described. […] Five sets of refractory cell lines were generated from the pool of refractory cell lines trying to match the lineage composition of the set of sensitive cell lines. The limma package was used as previously described to perform the statistical comparison.

[1] = SUP-M2 (haematopoietic_and_lymphoid_tissue, anaplastic_large_cell_lymphoma)
[2] = SW48 (large_intestine, adenocarcinoma)
[3] = SW480 (large_intestine, adenocarcinoma)
[4] = SW620 (large_intestine, adenocarcinoma)
[5] = SW837 (large_intestine, adenocarcinoma)
[6] = SW948 (large_intestine, adenocarcinoma)
[7] = SW 1088 (central_nervous_system)
[8] = SW 1088 (central_nervous_system, NS)
[9] = SW 1271 (lung, small_cell_carcinoma)
[10] = SW1417 (large_intestine, adenocarcinoma)
[11] = SW 1573 (lung, squamous_cell_carcinoma)
[12] = SW 1783 (central_nervous_system, astrocytoma_Grade_III)
[13] = SW 1990 (pancreas, ductal_carcinoma)
[14] = Set-2 (haematopoietic_and_lymphoid_tissue)
[15] = T24 (urinary_tract, transitional_cell_carcinoma)
[16] = T84 (large_intestine, adenocarcinoma)
[17] = T98G (central_nervous_system, astrocytoma_Grade_IV)
[18] = T778 (soft_tissue, well_differentiated)
[19] = T-47D (breast, ductal_carcinoma)
[20] = TE-1 (oesophagus, squamous_cell_carcinoma)
[21] = TE-5 (oesophagus, squamous_cell_carcinoma)
[22] = TE-6 (oesophagus, squamous_cell_carcinoma)
[23] = TE-10 (oesophagus, squamous_cell_carcinoma)
[24] = TE-11 (oesophagus, squamous_cell_carcinoma)
[25] = TE-15 (oesophagus, squamous_cell_carcinoma)
[26] = TEN (endometrium, clear_cell_carcinoma)
[27] = TF-1 (haematopoietic_and_lymphoid_tissue)
[28] = TF-1 (haematopoietic_and_lymphoid_tissue, acute_myeloid_leukaemia)
[29] = THP-1 (haematopoietic_and_lymphoid_tissue, acute_myeloid_leukaemia)

## CC(C)[C@@]12C[C@@H](O)[C@@](C)(O1)[C@@H]1CC[C@@H](C)[C@H]1[C@@H]2OC(=O)/C=C/c1ccccc1 [Englerin B]
SUM-52 (breast, NS)
  AMAX: -47.91
  RESPONSE: INTERMEDIATE
[1]
  ACTIVITY_AREA: 28.78
  AMAX: -87.2
  RESPONSE: INTERMEDIATE
SUP-M2 cells
  ACTIVITY_AREA: 28.78
  AMAX: -87.2
  RESPONSE: INTERMEDIATE
[2]
  ACTIVITY_AREA: 28.7
  AMAX: -50.84
  RESPONSE: INTERMEDIATE
SW480 (large_intestine)
  ACTIVITY_AREA: 48.75
  AMAX: -46.99
  RESPONSE: INTERMEDIATE
[3]
  ACTIVITY_AREA: 48.75
  AMAX: -46.99
  RESPONSE: INTERMEDIATE
SW620 (large_intestine)
  ACTIVITY_AREA: 42.72
  AMAX: -83.79
  RESPONSE: INTERMEDIATE
[4]
  ACTIVITY_AREA: 42.72
  AMAX: -83.79
  RESPONSE: INTERMEDIATE
SW837 (large_intestine)
  ACTIVITY_AREA: 20.36
  AMAX: -33.56
  RESPONSE: INTERMEDIATE
[5]
  ACTIVITY_AREA: 20.36
  AMAX: -33.56
  RESPONSE: INTERMEDIATE
SW948 (large_intestine)
  ACTIVITY_AREA: 18.41
  AMAX: 18.53
  RESPONSE: REFRACTORY
[6]
  ACTIVITY_AREA: 18.41
  AMAX: 18.53
  RESPONSE: REFRACTORY
[7]
  ACTIVITY_AREA: 57.04
  AMAX: -39.35
  RESPONSE: INTERMEDIATE
[8]
  ACTIVITY_AREA: 57.04
  AMAX: -39.35
  RESPONSE: INTERMEDIATE
SW 1271 (lung)
  ACTIVITY_AREA: 115.89
  AMAX: -47.08
  RESPONSE: INTERMEDIATE
[9]
  ACTIVITY_AREA: 115.89
  AMAX: -47.08
  RESPONSE: INTERMEDIATE
SW 1353 (bone)
  ACTIVITY_AREA: 35.9
  AMAX: -34.39
  RESPONSE: INTERMEDIATE
SW 1353 (bone, NS)
  ACTIVITY_AREA: 35.9
  AMAX: -34.39
  RESPONSE: INTERMEDIATE
SW1417 (large_intestine)
  ACTIVITY_AREA: 21.32
  AMAX: -56.28
  RESPONSE: INTERMEDIATE
[10]
  ACTIVITY_AREA: 21.32
  AMAX: -56.28
  RESPONSE: INTERMEDIATE
SW 1573 (lung)
  ACTIVITY_AREA: 47.86
  AMAX: -9.25
  RESPONSE: REFRACTORY
[11]
  ACTIVITY_AREA: 47.86
  AMAX: -9.25
  RESPONSE: REFRACTORY
[12]
  ACTIVITY_AREA: 20.67
  AMAX: -42.77
  RESPONSE: INTERMEDIATE
SW 1990 (pancreas)
  ACTIVITY_AREA: 26.12
  AMAX: -47.9
  RESPONSE: INTERMEDIATE
[13]
  ACTIVITY_AREA: 26.12
  AMAX: -47.9
  RESPONSE: INTERMEDIATE
[14]
  ACTIVITY_AREA: 53.05
  AMAX: -70.32
  RESPONSE: INTERMEDIATE
T24 (urinary_tract)
  ACTIVITY_AREA: 30.61
  AMAX: -35.08
  RESPONSE: INTERMEDIATE
[15]
  ACTIVITY_AREA: 30.61
  AMAX: -35.08
  RESPONSE: INTERMEDIATE
T84 (large_intestine)
  ACTIVITY_AREA: 33.4
  AMAX: -50.5
  RESPONSE: INTERMEDIATE
[16]
  ACTIVITY_AREA: 33.4
  AMAX: -50.5
  RESPONSE: INTERMEDIATE
T98G (central_nervous_system)
  ACTIVITY_AREA: 28.89
  AMAX: -38.16
  RESPONSE: INTERMEDIATE
[17]
  ACTIVITY_AREA: 28.89
  AMAX: -38.16
  RESPONSE: INTERMEDIATE
T778 (soft_tissue)
  ACTIVITY_AREA: 40.16
  AMAX: -31.23
  RESPONSE: INTERMEDIATE
[18]
  ACTIVITY_AREA: 40.16
  AMAX: -31.23
  RESPONSE: INTERMEDIATE
T-47D (breast)
  ACTIVITY_AREA: 61.93
  AMAX: -42.63
  RESPONSE: INTERMEDIATE
[19]
  ACTIVITY_AREA: 61.93
  AMAX: -42.63
  RESPONSE: INTERMEDIATE
TC-71 (bone)
  ACTIVITY_AREA: 32.45
  AMAX: -61.62
  RESPONSE: INTERMEDIATE
TC-71 (bone, NS)
  ACTIVITY_AREA: 32.45
  AMAX: -61.62
  RESPONSE: INTERMEDIATE
TE 617.T (soft_tissue, NS)
  ACTIVITY_AREA: 23.8
  AMAX: -60.33
  RESPONSE: INTERMEDIATE
TE 617.T cells
  ACTIVITY_AREA: 23.8
  AMAX: -60.33
  RESPONSE: INTERMEDIATE
TE-1 (oesophagus)
  ACTIVITY_AREA: 42.14
  AMAX: -69.66
  RESPONSE: INTERMEDIATE
[20]
  ACTIVITY_AREA: 42.14
  AMAX: -69.66
  RESPONSE: INTERMEDIATE
TE-5 (oesophagus)
  ACTIVITY_AREA: 27.7
  AMAX: -50.48
  RESPONSE: INTERMEDIATE
[21]
  ACTIVITY_AREA: 27.7
  AMAX: -50.48
  RESPONSE: INTERMEDIATE
TE-6 (oesophagus)
  ACTIVITY_AREA: 39.02
  AMAX: -58.01
  RESPONSE: INTERMEDIATE
[22]
  ACTIVITY_AREA: 39.02
  AMAX: -58.01
  RESPONSE: INTERMEDIATE
TE-10 (oesophagus)
  ACTIVITY_AREA: 20.84
  AMAX: -31.79
  RESPONSE: INTERMEDIATE
[23]
  ACTIVITY_AREA: 20.84
  AMAX: -31.79
  RESPONSE: INTERMEDIATE
TE-11 (oesophagus)
  ACTIVITY_AREA: 38.6
  AMAX: -80.05
  RESPONSE: INTERMEDIATE
[24]
  ACTIVITY_AREA: 38.6
  AMAX: -80.05
  RESPONSE: INTERMEDIATE
TE-15 (oesophagus)
  ACTIVITY_AREA: 18.14
  AMAX: -57
  RESPONSE: INTERMEDIATE
[25]
  ACTIVITY_AREA: 18.14
  AMAX: -57
  RESPONSE: INTERMEDIATE
TEN (endometrium)
  ACTIVITY_AREA: 11.94
  AMAX: -39.54
  RESPONSE: INTERMEDIATE
[26]
  ACTIVITY_AREA: 11.94
  AMAX: -39.54
  RESPONSE: INTERMEDIATE
[27]
  ACTIVITY_AREA: 37.19
  AMAX: -82.44
  RESPONSE: INTERMEDIATE
[28]
  ACTIVITY_AREA: 37.19
  AMAX: -82.44
  RESPONSE: INTERMEDIATE
[29]
  ACTIVITY_AREA: 72.35
  AMAX: -58.83
  RESPONSE: INTERMEDIATE
TOV-21G (ovary)
  ACTIVITY_AREA: 52.76
  AMAX: -60.59
  RESPONSE: INTERMEDIATE

From PMC4476799, “Englerin A Agonizes the TRPC4/C5 Cation Channels to Inhibit Tumor Cell Line Proliferation” (PLoS ONE, 2015)
